Where “and” joins values, the source holds several entries; their conditions need not be identical. Identical values can stand only once. This is one part of the list. These are further read-outs of the screen, such as a control signal, another cell line or another target. No call is given for them. Compounds called inactive in the main read-out are mostly missing here. Words in brackets tell the shape of the fitted curve; partial curves, single points and poor fits give uncertain potencies.
Assay: Cell signaling CRE-BLA (Fsk stim)
Details: CHO CRE-bla reporter (cAMP response element driving beta-lactamase), forskolin EC10, beta-lactamase ratio; measured here: 460 nm blue channel
Outline: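 Cells were plated overnight at 37 °C, exposed to compound titrations plus EC10 NKH 477 for 3 h, then given CCF4 dye for 2 h at room temperature. Blue/green (460/530 nm) ratio was converted to %Activity and AC50 values calculated.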

| SMILES | AC50 |
| --- | --- |
| CCCCOC(=O)CSc1nnc(-c2cc(OC)c(OC)c(OC)c2)o1 | 15.8 µM [rising, single point] |
| CC(Sc1ncc(C#N)c(N)n1)C(=O)Nc1ccccc1 (stereo not given) | 25.1 µM [falling, single point] |
| CCc1cc2c(=O)n(Cc3ccco3)c(SCc3c(C)noc3C)nc2s1 | 0.02 µM [falling, full curve, poor fit] |
| c1ccc2c(c1)ccc1cc3c(ccc4ccccc43)cc12 | 6.31 µM [rising, full curve] |
| CN(C(=O)COc1cc(=O)n(C)c2ccccc12)c1cccc(Cl)c1 | 25.1 µM [rising, single point] |
| COCCOC(=O)C1=C(C)NC2=C(C(=O)CC(C)(C)C2)C1c1ccc2c(c1)OCO2 (stereo not given) | 10 µM [rising, single point] |
| O=C(C1CCCN(S(=O)(=O)c2cccs2)C1)N1CCc2ccccc2C1 (stereo not given) | 0.0158 µM [falling, full curve, poor fit] |
| O=C(NCc1ccccn1)Nc1cccc(NC(=O)NCc2ccccn2)c1 | 10 µM [rising, single point] |
| c1ccc2c(-c3nc(-c4ccncc4)no3)cccc2c1 | 12.6 µM [rising, partial curve, poor fit] |
| COC(=O)Nc1nc2ccc(C(=O)c3cccs3)cc2[nH]1 | 1.26 µM [rising, full curve] and 501 nM [rising, full curve] and 100 nM [rising, full curve] |
| Cc1cc(C)cc(Nc2cc(C)nc3nc(C)nn23)c1 | 7.94 µM [rising, partial curve] |
| CC1CCN(c2oc(-c3cccc4ccccc34)nc2C#N)CC1 | 12.6 µM [rising, partial curve] |
| O=c1c2ccccc2nc(-c2ccco2)n1CCCn1ccnc1 | 25.1 µM [rising, single point] |
| CCC1Cc2c(nc3c4c(nc(N5CCOCC5)c(C#N)c24)NC(C)=N3)O1 (stereo not given) | 12.6 µM [rising, partial curve] |
| Cc1ccc(NC(=O)CSc2nc3c(c(=O)[nH]2)CCC3)cc1C | 10 µM [rising, partial curve] |
| Cc1cc(C)c2c(CN3CCN(C/C=C/c4ccccc4)CC3)cc(=O)oc2c1 | 0.398 µM [rising, full curve, poor fit] |
| C=CCn1c(SCC(=O)/C(C#N)=C(\C)N)nnc1C1CCCCC1 | 0.316 µM [falling, partial curve] |
| O=C(CNCC1CCCO1)Nc1ccccc1-n1cccc1 (stereo not given) | 0.00794 µM [falling, full curve, poor fit] |
| COc1ccc(C2/C(=C(\O)c3ccc4c(c3)OCCO4)C(=O)C(=O)N2CCCN(C)C)c(OC)c1 (stereo not given) | 3.98 µM [falling, partial curve] |
| Clc1cccc(-c2nnc(SCc3nc4ccccc4[nH]3)n2Cc2ccco2)c1 | 7.94 µM [rising, partial curve] |
| CCOCCCNc1nc2c([nH]1)c(=O)n(C)c(=O)n2C | 3.98 µM [falling, single point] |
| CCCc1ccc(OCC(O)CN2CCN(c3ccccc3)CC2)cc1 (stereo not given) | 12.6 µM [falling, partial curve] |
| C=CCOc1nc2c(c(=O)n(C)c(=O)n2C)n1C | 0.398 µM [rising, partial curve, poor fit] |
| C=C1C(=O)C=C2CN(C(=O)c3ccccc3)[C@@](Cc3ccc(OC)cc3)(C(=O)OC)[C@@H]12 | 0.316 µM [falling, full curve] |
| CCOC(=O)N/C(N)=N/c1nc2ccccc2s1 | 0.398 µM [rising, partial curve] |
| O=C(c1ccco1)N1CCN(C(=O)N2c3ccccc3Sc3ccccc32)CC1 | 1 µM [rising, partial curve] |
| COc1cccc(N(CC(=O)NC(C)c2ccccc2)S(C)(=O)=O)c1 (stereo not given) | 0.00794 µM [falling, full curve, poor fit] |

| SMILES | AC50 |
| --- | --- |
| CN1C(=O)NC(c2ccccc2)C2=C1CN(c1cccc(C(F)(F)F)c1)C2=O (stereo not given) | 10 µM [rising, single point] |
| c1ccc(COn2nnc3ccccc32)c(COn2nnc3ccccc32)c1 | 12.6 µM [rising, single point] |
| CC1(C)OC(=O)C(=C2CCCN2)C(=O)O1 | 0.501 µM [rising, full curve] |
| COCCNC(=O)c1c(N)n(-c2cccc(C)c2)c2nc3ccccc3nc12 | 10 µM [rising, partial curve] |
| CN(C)c1ncc2nc(-c3ccc(F)cc3)c(=O)n(CCc3ccccc3)c2n1 | 3.98 µM [rising, partial curve] |
| COc1ccc(-n2c(SCCC#N)nnc2-c2cc(Cl)ccc2OC)cc1Cl | 5.01 µM [rising, partial curve] |
| Cn1c(=O)c(-c2cc(F)cc(F)c2)nc2cnc(Oc3ccccc3)nc21 | 25.1 µM [rising, single point] |
| CNC(=O)c1cc2c(=O)n3cc(C)ccc3nc2n(C(C)C)c1=N | 12.6 µM [rising, partial curve] |
| Cc1cc(C)c2c(n1)nn1c(N3CCOCC3)cc(C)nc21 | 1.26 µM [rising, full curve] |
| Cc1noc(C)c1-c1ccc2ncnc(NCc3ccccc3)c2c1 | 7.94 µM [rising, partial curve] |
| CN(C)C(=O)c1ccc(-c2cc(Nc3ccccc3)ncn2)cc1 | 5.01 µM [rising, single point] |
| COC(=O)c1ccccc1NC(=O)COc1ccccc1 | 20 µM [rising, single point] |
| CCCCC(=O)Nc1cccc2c1C(=O)N(c1ccccc1)C2=O | 10 µM [rising, single point] |
| CC(Oc1ccc(Cl)cc1Cl)C(=O)N(Cc1ccco1)C1CCS(=O)(=O)C1 (stereo not given) | 10 µM [rising, single point] |
| C=C1CSc2nc(=O)c3c4c(sc3n21)CCCC4 | 12.6 µM [rising, single point] |
| COc1ccc(S(=O)(=O)N(C)CC(=O)N2CCC(C(N)=O)CC2)cc1Cl | 5.01 µM [falling, partial curve, poor fit] |
| Cc1csc(SCC(=O)Nc2cc(C(C)(C)C)nn2-c2ccccc2)n1 | 0.02 µM [falling, full curve, poor fit] |
| Cc1nn(Cc2ccccc2)c(C)c1C(=O)OCC(=O)c1cc(C)n(C2CC2)c1C | 0.398 µM [falling, full curve] |
| CCC(=O)N1CCc2cc(OC)c(OC)cc2C1COc1ccc(C(=O)OC)cc1 (stereo not given) | 3.98 µM [rising, partial curve] |
| CCOC(=O)c1cc2ccc(OC(=O)c3ccco3)cc2oc1=O | 3.98 µM [rising, partial curve] |
| CCOCc1cc(C2NC(=O)NC(C)=C2C(=O)OCC)ccc1OC (stereo not given) | 12.6 µM [rising, partial curve] |
| CC1=C(C(=O)OCc2ccccc2)C(c2ccc(Cl)cc2)NC(=O)N1CCCCCC(=O)O (stereo not given) | 12.6 µM [rising, partial curve] |
| COc1cc(-c2nn3c(-c4ccccc4)nnc3s2)cc(OC)c1OC | 1 µM [rising, full curve] |
| CN(Cc1ccco1)c1nc(-c2ccoc2)nc2ccccc12 | 3.98 µM [rising, full curve] |
| CCCCn1c(SCC(=O)OC)nc2c1c(=O)n(C)c(=O)n2C | 12.6 µM [rising, partial curve] |
| Cc1cc(C)c2c(n1)nn1c(N3CCN(c4cccc(Cl)c4)CC3)cc(C)nc21 | 0.00316 µM [rising, full curve, poor fit] |
| COc1ccc(CC(=O)Nc2cccc(-c3nnc(-c4ccccc4)o3)c2)cc1OC | 25.1 µM [falling, single point] |

| SMILES | AC50 |
| --- | --- |
| Cc1ccc(S(=O)(=O)N2CCC(C(=O)N[C@@H](C)C(=O)NCc3ccccc3)CC2)cc1 | 0.00794 µM [falling, partial curve, poor fit] |
| Clc1ccc(OCc2nn3c(-c4ccco4)nnc3s2)cc1 | 12.6 µM [rising, single point] |
| Cc1ccc(-n2c3c(cc(C(=O)NCc4ccco4)c2=O)C(=O)CC(C)(C)C3)cc1 | 0.398 µM [rising, partial curve] |
| Cc1ccc(-c2nn(-c3ccccc3)cc2C2SCC(=O)N2Cc2ccccc2)o1 (stereo not given) | 15.8 µM [falling, partial curve] |
| COc1ccc(C2CC(=O)c3cnc(N4CCN(Cc5ccccc5)CC4)nc3C2)cc1 (stereo not given) | 12.6 µM [rising, single point] |
| N#CCCn1c(=O)c(-c2ccc(Cl)cc2)nc2cnc(N3CCNCC3)nc21 | 2 µM [rising, full curve] |
| CCOC(=O)c1ccccc1NC(=O)Cn1cnc2c(cnn2C(C)(C)C)c1=O | 12.6 µM [rising, single point] |
| Cc1cnc(CNc2ncnc3ccc(-c4ccoc4)cc23)cn1 | 10 µM [falling, partial curve] |
| O=C1CC(Sc2nnc(-c3ccccc3)o2)C(=O)N1c1ccccc1 (stereo not given) | 31.6 µM [falling, single point] |
| CCCc1nc2oc3c(NCCOCCO)ncnc3c2c2c1COC(C)(C)C2 | 0.501 µM [rising, full curve] |
| Cc1cc(C)n(CCOc2ccc(Cl)cc2Cl)n1 | 10 µM [rising, partial curve] |
| CCOC(=O)CC(=O)CSc1nc(-c2cccnc2)cc(C)c1C#N | 12.6 µM [rising, partial curve] |
| O=c1[nH]c(SCc2ccc(F)cc2)nc2c1cnn2-c1ccc(F)cc1 | 3.16 µM [rising, full curve] |
| O=C(CCc1ccc(O)cc1)c1c(O)cc(O)cc1O | 25.1 µM [falling, partial curve, poor fit] |
| CCOC(=O)c1ccc(N2C(=O)c3n[nH]c(C)c3C2c2ccccn2)cc1 (stereo not given) | 12.6 µM [rising, single point] |
| c1ccc(Cn2c(Nn3cnnc3)nc3ccccc32)cc1 | 0.00398 µM [falling, full curve, poor fit] |
| COc1ccc(S(=O)(=O)N2CCCN(CCC(=O)Nc3cccc(C(F)(F)F)c3)CC2)cc1 | 12.6 µM [rising, single point] |
| Cc1cccc(OCC(=O)Nc2cc(C)ccc2O)c1 | 0.794 µM [rising, full curve] |
| CC(=O)C1=C(O)C=C2Oc3c(C(C)=O)c(O)c(C)c(O)c3[C@]2(C)C1=O | 25.1 µM [rising, partial curve, poor fit] |
| CCc1c(C)nc2ncnn2c1N1CCC(C(=O)Nc2ccccc2)CC1 | 12.6 µM [rising, single point] |
| COc1cc(C(=O)N2CCC(NC(=O)C(Cc3ccccc3)NC(C)=O)CC2)cc(OC)c1OC (stereo not given) | 5.01 µM [falling, partial curve] |
| CCOC(=O)C1=C(O)C(=O)N(c2ccc(S(N)(=O)=O)cc2)C1c1ccccc1 (stereo not given) | 0.00316 µM [falling, full curve, poor fit] |
| CC(NC(=O)c1ccc(CS(=O)(=O)Cc2ccccc2F)o1)c1ccc2c(c1)OCCO2 (stereo not given) | 0.126 µM [falling, full curve] |
| COC(=O)c1ccccc1NC(=O)N1CSC[C@H]1C(=O)OC | 10 µM [falling, partial curve] |
| CCOc1ccc(OCC)c(NC(=O)CN(c2ccc(C)cc2)S(=O)(=O)c2c(C)noc2C)c1 | 1 µM [rising, full curve, poor fit] |
| Cc1ccc2nc3c(cc(C(=O)NCCCn4ccnc4)n3C)c(=O)n2c1 | 5.01 µM [falling, partial curve] |

— PubChem BioAssay AID662 (National Center for Advancing Translational Sciences (NCATS), 2007)
